Assay: general procedure: hybrid (solid and solution phase) peptide synthesis; preloaded Fmoc-Leu-Wang resin (0.81 mmol/gram); HBTU/OxymaPure/DIPEA; DIC/DMAP for Cam ester formation
Details: coupling step

PTC-Phe-^1His-^2Aib-^3Glu-^4Gly-^5Thr-^6Phe-^7Thr-^8Ser-^9Asp-^10Val-^11Ser-^12Ser-^13Tyr-^14Leu-^15Glu-^16Gly-^17Gln-^18Ala-^19Ala-^20Lys-^21Glu-^22Phe-^23Ile-^24Ala-^25Trp-^26Leu-^27Val-^28Arg-^29Gly-^30Arg-^31Gly-OH
outcome: The coupling failed. | crude LC-MS purity: 80 area %

PTC-Phe-^1His-^2Ala-^3Glu-^4Gly-^5Thr-^6Phe-^7Thr-^8Ser-^9Asp-^10Val-^11Ser-^12Ser-^13Tyr-^14Leu-^15Glu-^16Gly-^17Gln-^18Ala-^19Ala-^20Lys-^21Glu-^22Phe-^23Ile-^24Ala-^25Trp-^26Leu-^27Val-^28Arg-^29Gly-^30Arg-^31Gly-OH
crude LC-MS purity: 82 area %

Reference: US10858414 (dated 2020)
